Test results taken from PubChem BioAssay AID504847 (National Center for Advancing Translational Sciences (NCATS), 2011).
In all, about 400,000 compounds went through this assay and about 3,700 (0.93%) were called active. Inconclusive means that the source gave no clear call. Such entries were picked first, then a sample of the others. Calls follow the shape of the dose curve; as a rule, active = well fitted inhibition curve with a large enough effect; inconclusive = small, poorly fitted or top-dose-only effect, or another doubt; inactive = no such curve, though single readings can be large or run the other way. A potency beside an inconclusive call is a rough fit, not a confirmed value. More than one record can exist for a structure, and the calls need not agree.

By UniProt entry, the sequences of proteins in these tests, tags left out.
UniProt P11473, whole entry, looked up: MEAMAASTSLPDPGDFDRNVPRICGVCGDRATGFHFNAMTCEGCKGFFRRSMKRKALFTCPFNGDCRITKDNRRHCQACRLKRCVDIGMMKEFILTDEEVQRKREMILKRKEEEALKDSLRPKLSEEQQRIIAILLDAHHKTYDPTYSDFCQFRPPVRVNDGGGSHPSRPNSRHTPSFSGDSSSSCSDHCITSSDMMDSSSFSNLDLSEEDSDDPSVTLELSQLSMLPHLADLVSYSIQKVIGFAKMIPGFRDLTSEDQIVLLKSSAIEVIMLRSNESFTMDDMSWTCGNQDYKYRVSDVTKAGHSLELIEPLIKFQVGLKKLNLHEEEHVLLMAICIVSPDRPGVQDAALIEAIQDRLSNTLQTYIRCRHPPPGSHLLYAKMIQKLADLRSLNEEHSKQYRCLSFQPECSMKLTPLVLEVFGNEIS

target: Vitamin D3 receptor (Homo sapiens) (UniProt P11473); experiment: Inhibitors of the vitamin D receptor (VDR): qHTS; conditions: VDR-SRC2-3 peptide fluorescence polarization, 2 h; max response, negative = inhibition: stronger effect = lower value
Summary of the method: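 Inhibition of the VDR/SRC2-3 peptide interaction is quantified by fluorescence polarization. Compounds (23 nl, pintool) incubate with the reagents for 2 hours at ambient room temperature.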
% is scaled to controls: 0 for no effect and ±100 for the full control effect; potency is read from the fitted curve at half-maximal effect.

Max response, negative = inhibition, inactive:
CN1CCN(c2ccc(NC(=O)CSc3nnnn3-c3ccccc3F)cc2)CC1 3.85%, CCCC(=O)N1CC(=O)Nc2ccc(F)cc2C1c1ccccc1 (stereo unspecified) -26%, N[C@H](Cn1ccc(=O)c(O)c1)C(=O)O 0.936%, CCOC(=O)C1(Cc2cccc(F)c2)CCN(C2CCOCC2)CC1 -6.2%, O=C(CC1Sc2ccccc2NC1=O)Nc1cccc(C(=O)O)c1 (stereo unspecified) -29.5%, CCCOc1ccc(OCCn2nc(C(=O)O)c3ccccc3c2=O)cc1 -21.6%, c1ccc(-c2nccc(-c3ccc4c(c3)OCO4)n2)cc1 -21.8%, COc1ccc(CCN2C(=O)C3C4C=CC(C3C2=O)C2C(=O)N(CCc3ccc(OC)c(OC)c3)C(=O)C42)cc1OC (stereo unspecified) 10.6%, Cc1c(C(=O)NCc2ccccc2Cl)sc2nc[nH]c(=O)c12 16.4%, O=[N+]([O-])c1ccc(O)c(/C=N/Nc2nc3ccccc3[nH]2)c1 -8.91%, Cc1ccc(NC(=O)NNC(=O)c2ccccc2)cc1 -3.39%, COc1cccc2cc(C(=O)NNC(=O)c3ccc(Br)cc3)c(=O)oc12 -9.84%, CN(C)S(=O)(=O)c1cccc(NC(=O)C2Cc3ccccc3CN2C(=O)c2ccco2)c1 (stereo unspecified) 1.26%, OB(O)c1ccc(Cl)s1 -19.3%, COc1cccc(C(=O)Nc2ccccc2-c2nnc(-c3cccc(OC)c3)o2)c1 -2.19%, CCOc1ccc(S(=O)(=O)Nc2ncn[nH]2)cc1 -4.84%, C=CC(C)(O)CC1[C@@]2(C)CCCC(C)(C)C2CC[C@]1(C)O (stereo partly specified) -1.93%, COc1ccc(CNC(=O)CCc2nc(-c3ccc(C)cc3)no2)c(OC)c1 9.23%, COc1ccc(-n2cccc2/C=C2\C(=N)N3N=C(c4ccco4)SC3=NC2=O)cc1 0.886%, NC(=S)N/N=C/c1coc2ccc(O)cc2c1=O -13.6%, O=C(O)Cc1csc(Nc2cccc(Cl)c2)n1 7.59%, CCN1C=CC(=C2C(=O)c3ccccc3C2=O)C=C1 -1.49%, CCOC(=O)c1nc(N)c(C(=O)OCC)[nH]1 -11.4%

Potency, active:
Cc1ccc(-c2nn(-c3ccccc3)cc2C=C2C(=O)CC(C)(C)CC2=O)cc1 25.1 µM, O=c1[nH]c(/C=C\c2cccc(C(F)(F)F)c2)nc(O)c1[N+](=O)[O-] 44.7 µM, CCCCCCCCCCCNC(=O)c1ccoc1C 79.4 µM, Cc1ccc(-n2nnnc2C(Cl)(Cl)c2nnnn2-c2ccc(C)cc2)cc1 6.31 µM, CCOc1ccc(/C=C/C(=O)c2cccs2)cc1 22.4 µM, C=CCSc1nc2sc3c(c2c(=O)n1CC)CCc1ccccc1-3 25.1 µM, Cc1ccc(SC(CC(=O)c2ccc(C)cc2)C(=O)O)cc1 (stereo unspecified) 20 µM, O=C1N=c2ccccc2=C1c1c(O)[nH]c2c(C(F)(F)F)cccc12 35.5 µM, CCN1/C(=C/C=C/c2sc3ccccc3[n+]2CC)Sc2ccccc21 7.94 µM

Potency, inconclusive:
O=C(NCCC(c1ccccc1)c1ccccc1)c1cnccn1 2.51 µM [inhibitor, full curve, poor fit], O=C(CSc1nnc(-c2ccccc2F)n1C1CC1)Nc1cccnc1Cl 25.1 µM [inhibitor, single point], COCCCNC(=O)C[C@H]1C[C@H](C(=O)N2CCCCC2)[C@@]2(C)c3[nH]c4cc(-c5ccco5)ccc4c3CCN2C1=O 56.2 µM [inhibitor, partial curve, poor fit], CC(=O)NCCC(=O)N1CCCC(N2CCN(c3cccc(Cl)c3)CC2)C1 (stereo unspecified) 14.1 µM [inhibitor, partial curve, poor fit], CCC(=O)Nc1ccc(NC(=S)NC(=O)c2cc3ccccc3o2)cc1 89.1 µM [inhibitor, partial curve, poor fit], Cc1ccc(S/C(=N\S(=O)(=O)c2ccc(Cl)cc2)c2ccccc2)cc1 56.2 µM [inhibitor, partial curve, poor fit], COc1ccc(N(C(=O)c2cccnc2)S(=O)(=O)c2cc(OC)ccc2OC)cc1 44.7 µM [inhibitor, partial curve], COC(=O)c1oc2ccccc2c1N 100 µM [inhibitor, single point], CN(C)c1ccc(N=Nc2ccc(C(=O)O)cc2)cc1 15.8 µM [inhibitor, full curve], CC(/C=C/c1ccco1)=N\NC(=O)C(O)c1ccccc1 (stereo unspecified) 100 µM [inhibitor, single point], O=C1NC(=O)C(=Cc2ccccc2[N+](=O)[O-])S1 70.8 µM [inhibitor, partial curve, poor fit], N#C/C(=C/c1cccc([N+](=O)[O-])c1)C(=O)Nc1ccccc1O 89.1 µM [inhibitor, partial curve, poor fit], NNC(=O)c1ccc(CSc2nc3ccccc3s2)cc1 89.1 µM [inhibitor, single point], COC(=O)CCC(=O)OC1(C)C(=O)C2=CN(Cc3ccc(OC)cc3)C(c3ccc(OC)cc3)=CC2=C(Br)C1=O (stereo unspecified) 70.8 µM [inhibitor, partial curve], CCOC(=O)CN1C(=O)S/C(=C\c2ccc(-c3ccc(C(=O)O)c(Cl)c3)o2)C1=O 89.1 µM [inhibitor, single point], CCOc1ccc(S(=O)(=O)NCCC(=O)NC2CCN(Cc3ccccc3)CC2)cc1 39.8 µM [inhibitor, partial curve, poor fit], O=C(Nc1ccccc1)c1ccc[nH]1 22.4 µM [inhibitor, partial curve, poor fit], COc1ccc(/C=C/C(=O)NC(=S)Nc2cc([N+](=O)[O-])ccc2O)cc1OC 15.8 µM [inhibitor, partial curve, poor fit], COc1ccc(Cl)cc1C(=O)C1CCCN(Cc2cnc(N3CCOCC3)s2)C1 (stereo unspecified) 35.5 µM [inhibitor, single point], COc1ccccc1NC(=O)Cn1c(=O)n(CCCCCC(=O)NCc2ccccc2)c(=O)c2sccc21 100 µM [inhibitor, single point], COc1ccccc1C1CC(=O)Oc2cc3c(cc21)OCO3 (stereo unspecified) 126 µM [inhibitor, single point], Cc1ccc2nc(CCl)[n+]([O-])c(-c3ccccc3)c2c1 25.1 µM [inhibitor, single point], O=C(NC(Cc1ccccc1)C(=O)O)C1CCN(S(=O)(=O)c2ccccc2C(F)(F)F)CC1 (stereo unspecified) 100 µM [inhibitor, partial curve, poor fit], COC(=O)CCC(=O)N1CCC(CCC(=O)NCc2ccc(F)cc2)CC1 100 µM [inhibitor, partial curve, poor fit], Cc1nnc(SCC(=O)c2ccc(S(=O)(=O)N3CCOCC3)cc2)n1-c1ccccc1 70.8 µM [inhibitor, partial curve, poor fit], N#C/C(=C/c1ccc(N2CCOCC2)o1)c1ccc(Cl)cc1 20 µM [inhibitor, full curve, poor fit], N#Cc1cccc(-c2nccc(NCc3cccs3)n2)c1 50.1 µM [inhibitor, partial curve], Clc1cccc(-c2nn3c(Cn4cnc5ccccc54)nnc3s2)c1 89.1 µM [inhibitor, single point], CCOc1ccc(C(=S)N2CCCC2)c(OCC)c1 79.4 µM [inhibitor, single point], COC(=O)C1C(O)=C(C(C)=N)C(=O)CC1(C)C (stereo unspecified) 89.1 µM [inhibitor, partial curve, poor fit], COc1cccc(Cn2nnc(C(=O)Nc3cc(C)ccc3OC)c2N)c1 89.1 µM [inhibitor, single point], CCOC(=O)c1ccccc1NC(=O)COC 89.1 µM [inhibitor, partial curve, poor fit], Nc1cc2c(cc1[N+](=O)[O-])OCCO2 1.12 µM [inhibitor, full curve, poor fit], Cc1cccnc1NC(=S)Nc1ccc(F)cc1F 100 µM [inhibitor, single point], CCCSc1nnc2nc(C)cc(C)n12 100 µM [inhibitor, partial curve, poor fit], COc1ccc(C)cc1S(=O)(=O)Nc1cccc(-c2ccc(N3CCCCCC3)nn2)c1 25.1 µM [inhibitor, partial curve, poor fit], CCn1c(=O)cc(OCC(=O)N2CCN(c3ccc(F)cc3)CC2)c2ccccc21 112 µM [inhibitor, partial curve, poor fit], Oc1ccc(N=Cc2ccc(OCc3ccccc3)cc2)cc1 79.4 µM [inhibitor, partial curve, poor fit], FC(F)(F)c1ccccc1-c1cc(NCc2ccccc2)ncn1 44.7 µM [inhibitor, partial curve, poor fit]
